The subject of data set [1] is SARS-CoV-2-ΔOrf7a-NLuc virus. Nature of the data set: microbe, parasite or virus in culture. Type of data set: cell-based.
For data set [2], the system named is SARS-CoV-2-ΔOrf7a-NLuc virus. Nature of the data set: microbe, parasite or virus in culture. Type of data set: cell-based. This is another data set of the same source.
Data set [3] has as its system SARS-CoV-2-ΔOrf7a-NLuc virus. Nature of the data set: Post-infection treatment: Vero cells infected 24 hrs with SARS-CoV-2-ΔOrf7a-NLuc, then compound for 48 hrs, bioluminescence. The format is cell-based. Particulars: change in replication relative to DMSO, then treated 48 hrs.
In another data set the test system is recombinant NLuc. The format is biochemical. Particulars: recombinant NLuc activity relative to DMSO.
The next data set concerns HUH7 cells. To be noted: HUH7 screen.

Read-outs that look alike come from different tables or passages of the source.

Turning to `CC(C)(C)c1ccc(C(=O)CCCN2CCC(OC(c3ccccc3)c3ccccc3)CC2)cc1` [Ebastine], the “% activity in Vero 100PFU screen” value in data set [1] worked out at 4%. Further, the IC50 in data set [1] (Severe acute respiratory syndrome coronavirus 2, Vero, read-out: Vero IC50) came out at 5 µM; in data set [2] (Severe acute respiratory syndrome coronavirus 2, Huh-7, read-out: HUH7 IC50), 0.5 µM. Further, the “Mean relative luminescence (n=4)” value was 0.007931 in data set [1] (Vero screen, […], relative luminescence) and 0.01594 in data set [2] (HUH7 screen, […], relative luminescence). In addition, in data set [3], the “Post-infection at IC50” value is -25%. The “Relative Recombinant NLUC” value in the data set on recombinant NLuc came to 0.8576. The PrestoBlue relative viability with Vero cells (Vero cells, 10 μM, 1 = DMSO-treated infected cells) was 0.6054; in the data set with Vero cells (Vero screen), 0.6054; with HUH7 cells, 1.614.

The record behind these values is paper PMC8428568, “Discovery of re-purposed drugs that slow SARS-CoV-2 replication in human cells” (PLoS Pathogens, 2021).
